# Results deposited as PubChem BioAssay AID1508597 (Cure First, 2020).
# Aim: 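Survival screen with siRNA in ovarian cancer cells derived from patients, with or without rucaparib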 (primary screen)
# Cell system: human ovarian carcinoma lines grown from tumours: OCI-P5x (papillary serous) and OCI-C5x (clear cell)
# Reagent: siRNA pool against human genes, 1.25 pmol siRNA per well
# Timing: 72 h or 96 h, depending on the cell culture
# Treatment: rucaparib 20 µM (about IC30) or vehicle, present until read-out
# Rucaparib or vehicle: Rucaparib
# Cell line: OCI-P5x (serous)
# Read-out: 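ATP luminescence measured at 72 or 96 h according to the culture, then normalised and expressed as percent viability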
# Reading the numbers: viability, normalised: higher = more viable cells remaining
# Rule for the call: 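a well counts as a hit if its normalised viability is under 80 percent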
# Calls: active = viability under 80%; inactive = viability 80% or more
# Shown is a random part of the about 2,100 reagents, under one of the conditions tested. 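Calls flag viability under 80% in either arm, not effects specific to rucaparib; the reference for percent is not stated.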 Unmarked entries are inactive. A reagent listed more than once was tested more than once; the source does not tell the runs apart. Not stated in the record: the 100% reference.
Target gene,technical replicate,"viability, normalised (%)"
"RAF1 (Raf-1 proto-oncogene, serine/threonine kinase)",1,101
"RAF1 (Raf-1 proto-oncogene, serine/threonine kinase)",2,89.6
"RAF1 (Raf-1 proto-oncogene, serine/threonine kinase)",3,76 (active)
STK32A (serine/threonine kinase 32A),1,94.9
STK32A (serine/threonine kinase 32A),2,104
STK32A (serine/threonine kinase 32A),3,99.5
PRP4K (pre-mRNA processing factor kinase PRP4K),1,122
PRP4K (pre-mRNA processing factor kinase PRP4K),2,118
PRP4K (pre-mRNA processing factor kinase PRP4K),3,97.8
TERF1 (telomeric repeat binding factor 1),1,66.7 (active)
TERF1 (telomeric repeat binding factor 1),1,63.2 (active)
TERF1 (telomeric repeat binding factor 1),2,58.4 (active)
TERF1 (telomeric repeat binding factor 1),2,80.9
TERF1 (telomeric repeat binding factor 1),3,52.4 (active)
TERF1 (telomeric repeat binding factor 1),3,52.7 (active)
PIK3C2B,1,114
PIK3C2B,2,141
PIK3C2B,3,107
UIMC1 (ubiquitin interaction motif containing 1),1,74.4 (active)
UIMC1 (ubiquitin interaction motif containing 1),1,61.7 (active)
UIMC1 (ubiquitin interaction motif containing 1),2,74 (active)
UIMC1 (ubiquitin interaction motif containing 1),2,68.3 (active)
UIMC1 (ubiquitin interaction motif containing 1),3,78.9 (active)
UIMC1 (ubiquitin interaction motif containing 1),3,59.4 (active)
PDK4 (pyruvate dehydrogenase kinase 4),1,65.9 (active)
PDK4 (pyruvate dehydrogenase kinase 4),2,71.5 (active)
PDK4 (pyruvate dehydrogenase kinase 4),3,65.7 (active)
GSK3B (glycogen synthase kinase 3 beta),1,70.3 (active)
GSK3B (glycogen synthase kinase 3 beta),1,97
GSK3B (glycogen synthase kinase 3 beta),2,60.1 (active)
GSK3B (glycogen synthase kinase 3 beta),2,88.1
GSK3B (glycogen synthase kinase 3 beta),3,95.8
GSK3B (glycogen synthase kinase 3 beta),3,49.9 (active)
DDX56 (DEAD-box helicase 56),1,56.4 (active)
DDX56 (DEAD-box helicase 56),2,62.7 (active)
DDX56 (DEAD-box helicase 56),3,69.7 (active)
RFC4 (replication factor C subunit 4),1,69.8 (active)
RFC4 (replication factor C subunit 4),2,75.4 (active)
RFC4 (replication factor C subunit 4),3,61 (active)

3 of these entries, set out differently:
STK32A (serine/threonine kinase 32A), technical replicate 2 | viability, normalised (%) = 104
STK32A (serine/threonine kinase 32A), technical replicate 3 | viability, normalised (%) = 99.5
PRP4K (pre-mRNA processing factor kinase PRP4K), technical replicate 1 | viability, normalised (%) = 122
